Laboratory results: PubChem BioAssay AID1224826 (NIAID, 2016)
Here is a random part of about 17,000 reagents. About 1,110 of them (6.6%) were called active. 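Active means lowered or raised reporter signal; replicate intensities are raw and not normalised per plate.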 Reagents against one gene are numbered here. No sequences are given here.

Aim: 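Knock-downs that raise or lower Tnf reporter signal after endotoxin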 (primary screen)
Cell system: RAW264.7 G9 macrophages from mouse bearing reporters for p65 (GFP) and the Tnf promoter (mCherry)
Reagent: siRNA pool against mouse genes, 100 nM
Time to read-out: 16 h of LPS stimulation, after 2 days of siRNA transfection
Challenge: bacterial lipopolysaccharide (Salmonella minnesota R595), 10 ng/ml
Measured: 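Imaged Tnf reporter mCherry in nuclei, minus background, normalised per plate to the median and expressed as robust z-scores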
Scale: Tnf reporter robust z-score: higher = stronger Tnf promoter reporter signal after LPS; Tnf reporter intensity: higher = stronger Tnf promoter reporter signal
Hit rule: 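a well counts as active at a score of -1.3 or below (Tlr4 knock-down control median) or above 3 (raised signal); controls and wells holding fewer than 50 cells are excluded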
Meaning of the calls: active = Tnf reporter clearly lowered or raised; inactive = no clear change in Tnf reporter

| gene | reagent | Tnf reporter robust z-score | fewer than 50 cells in well | Tnf reporter intensity, replicate 1 | Tnf reporter intensity, replicate 2 | call |
| --- | --- | --- | --- | --- | --- | --- |
| Myg1 (GeneID 60315) | 1 | -1.33 | enough cells in well | 136 | 52.1 | active |
| Apc2 (GeneID 23805) | 1 | -0.23 | enough cells in well | 160 | 150 | inactive |
| Ankrd55 (GeneID 77318) | 1 | 1.75 | enough cells in well | 175 | 152 | inactive |
| Ms4a6c (GeneID 73656) | 1 | 0.99 | enough cells in well | 243 | 174 | inactive |
| Snip1 (GeneID 76793) | 1 | -0.32 | enough cells in well | 200 | 233 | inactive |
| Drg2 (GeneID 13495) | 1 | 0.11 | enough cells in well | 256 | 198 | inactive |
| Zfp410 (GeneID 52708) | 1 | 0.24 | enough cells in well | 178 | 213 | inactive |
| Cab39 (GeneID 12283) | 1 | -0.56 | enough cells in well | 121 | 159 | inactive |
| Il21r (GeneID 60504) | 1 | -0.71 | enough cells in well | 179 | 67.3 | inactive |
| Xkr5 (GeneID 319581) | 1 | -0.87 | enough cells in well | 124 | 104 | inactive |
| Cul2 (GeneID 71745) | 1 | -0.26 | enough cells in well | 220 | 179 | inactive |
| Lrriq3 (GeneID 74435) | 1 | 0.58 | enough cells in well | 246 | 67.8 | inactive |
| Vldlr (GeneID 22359) | 1 | 0.82 | enough cells in well | 245 | 351 | inactive |
| Zfp61 (GeneID 22719) | 1 | 1.45 | enough cells in well | 188 | 182 | inactive |
| Akr1e1 (GeneID 56043) | 1 | -0.88 | enough cells in well | 124 | 113 | inactive |
| Runx1t1 (GeneID 12395) | 1 | 0.5 | enough cells in well | 243 | 286 | inactive |
| Mad2l1bp (GeneID 66591) | 1 | 1.94 | enough cells in well | 321 | 237 | inactive |
| Dnmbp (GeneID 71972) | 1 | 0.86 | enough cells in well | 189 | 182 | inactive |
| Tubgcp2 (GeneID 74237) | 1 | 0.03 | enough cells in well | 242 | 221 | inactive |
| Mbnl2 (GeneID 105559) | 1 | -1.67 | enough cells in well | 87.5 | 49.7 | active |
| Zfp41 (GeneID 22701) | 1 | -0.67 | enough cells in well | 166 | 191 | inactive |
| Glipr1 (GeneID 73690) | 1 | -0.52 | enough cells in well | 198 | 154 | inactive |
| Atat1 (GeneID 73242) | 1 | – | fewer than 50 cells per well; well left out of calls | 196 | 71 | inactive |
| Gdf7 (GeneID 238057) | 1 | -0.23 | enough cells in well | 197 | 147 | inactive |
| Hmgxb3 (GeneID 106894) | 1 | -0.75 | enough cells in well | 122 | 120 | inactive |
| Arid4b (GeneID 94246) | 1 | -0.33 | enough cells in well | 138 | 163 | inactive |
| Eif5b (GeneID 226982) | 1 | -0.68 | enough cells in well | 147 | 53 | inactive |
| Ccdc60 (GeneID 269693) | 1 | 0.82 | enough cells in well | 149 | 210 | inactive |
| Tmt1a2 (GeneID 393082) | 1 | – | fewer than 50 cells per well; well left out of calls | 248 | 88.3 | inactive |
| Rcn3 (GeneID 52377) | 1 | 2.21 | enough cells in well | 250 | 196 | inactive |
| Cenpb (GeneID 12616) | 1 | -0.19 | enough cells in well | 213 | 211 | inactive |
| Rpa2 (GeneID 19891) | 1 | 1.89 | enough cells in well | 226 | 193 | inactive |
| Bin1 (GeneID 30948) | 1 | 0.45 | enough cells in well | 147 | 214 | inactive |
| Actbl2 (GeneID 238880) | 1 | – | fewer than 50 cells per well; well left out of calls | 207 | 82.2 | inactive |
| Sec11a (GeneID 56529) | 1 | 0.35 | enough cells in well | 137 | 87.4 | inactive |
| Anxa7 (GeneID 11750) | 1 | -0.54 | enough cells in well | 169 | 102 | inactive |
| Rapgef4 (GeneID 56508) | 1 | 0.77 | enough cells in well | 230 | 178 | inactive |
| Rapgef4 (GeneID 56508) | 2 | -2.02 | enough cells in well | 66.3 | 60 | active |
| Syt6 (GeneID 54524) | 1 | 0.15 | enough cells in well | 130 | 92.3 | inactive |
| Spata4 (GeneID 69281) | 1 | 0.74 | enough cells in well | 120 | 129 | inactive |

4 consecutive entries from above, quoted:
| gene | reagent | Tnf reporter robust z-score | fewer than 50 cells in well | Tnf reporter intensity, replicate 1 | Tnf reporter intensity, replicate 2 | call |
| --- | --- | --- | --- | --- | --- | --- |
| Apc2 (GeneID 23805) | 1 | -0.23 | enough cells in well | 160 | 150 | inactive |
| Ankrd55 (GeneID 77318) | 1 | 1.75 | enough cells in well | 175 | 152 | inactive |
| Ms4a6c (GeneID 73656) | 1 | 0.99 | enough cells in well | 243 | 174 | inactive |
| Snip1 (GeneID 76793) | 1 | -0.32 | enough cells in well | 200 | 233 | inactive |
